# According to PubChem BioAssay AID504834 (National Center for Advancing Translational Sciences (NCATS), 2011):
# Among all 320,000 compounds or so, about 22,000 (6.9%) were called active. The inconclusive results got no clear call from the source; some entries with a clear call stand among them for comparison. Calls come from the whole dose curve; as a rule, active = well fitted inhibition curve with a large enough effect; inconclusive = small, poorly fitted or top-dose-only effect, or another doubt; inactive = no such curve, though single readings can be large or run the other way. Potencies beside an inconclusive call are fits to weak or partial responses and may not hold up.
# Assay: Primary qHTS for delayed death inhibitors of the malarial parasite plastid, 96 hour incubation
# Conditions: P. falciparum luciferase reporter growth; series mostly up to 28.7 µM
# Summary of the method: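 96 h incubation, 37 C, 5% CO2, of luciferase-reporter P. falciparum-infected RBCs (2% hematocrit, 0.05% parasitemia final) with test compounds; endpoint luminescence.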
# Potency is the fitted concentration of half-maximal effect.
row,Compound,Potency
1,Cc1ccc(S(=O)(=O)NCCN=C(CN2CCCC2)NS(=O)(=O)c2ccc(C)cc2)cc1,inactive
2,O=CC1=C(N2CCOCC2)/C(=C/c2ccc(Cl)cc2)CC1,inactive
3,O=C(Nc1nc2ccc(Oc3ccccc3)cc2s1)c1cc([N+](=O)[O-])ccc1N1CCOCC1,"inconclusive: 18.5 µM [inhibitor, single point]"
4,Nc1cc(N)nc(CS)n1,inactive
5,O=C(NCCc1c[nH]c2ccccc12)c1cccc(S(=O)(=O)Nc2ccccc2Cl)c1,"inconclusive: 14.7 µM [inhibitor, partial curve, poor fit]"
6,COc1ccccc1N1CCN(C(=O)N2CCOCC2)CC1,"inconclusive: 18.5 µM [inhibitor, single point]"
7,CN(C)CCN=Cc1c(O)n(-c2cccc(C(F)(F)F)c2)c(=O)[nH]c1=O,"inconclusive: 9.28 µM [inhibitor, single point]"
8,CCc1ccc2[nH]c(=O)c(CN(CCN(C)C)C(=O)Nc3ccccc3OC)cc2c1,"inconclusive: 16.5 µM [inhibitor, partial curve, poor fit]"
9,COc1ccc(OC)c(CCNC(=O)C(C)n2nc(C)c3c(C)n(-c4ccccc4)nc3c2=O)c1 (stereo not given),active: 11.7 µM
10,CCOC(=O)C(C)Sc1nnc(NC(=O)c2ccc3c(c2)OCO3)s1 (stereo not given),inactive
11,Cn1c(=O)[nH]c(=O)c2c1nc(NCc1ccccc1)n2Cc1ccc(F)cc1,inactive
12,COc1ccc(/C=C2\N=C3CCCN3C2=O)cc1,inactive
13,CC(C)(C)C(=O)NC(=S)NNC(=O)c1ccncc1,"inconclusive: 18.5 µM [inhibitor, single point]"
14,Cc1ccc(C)c(Nc2ccc3nonc3c2[N+](=O)[O-])c1,"inconclusive: 5.86 µM [inhibitor, partial curve, poor fit]"
15,C=CCNCCOc1cccc(Br)c1,inactive
16,COc1cccc(OC)c1OCCCN1CCOCC1,inactive
17,O=c1[nH]c(=O)n(Cc2ccccc2)c(O)c1C=NCCCn1ccnc1,inactive
18,NC(=S)NN=C1c2ccccc2-c2ccccc21,inactive
19,O=C(NC1CCN(Cc2ccccc2)CC1)C1CCN(S(=O)(=O)c2ccccc2)CC1,"inconclusive: 13.1 µM [inhibitor, partial curve]"
20,NC(=O)c1ccc(NC(=O)c2cnc3ccccc3n2)cc1,inactive
21,C#C[C@]1(O)CC[C@H]2[C@@H]3CCC4=CCCC[C@@H]4[C@H]3C(=C)C[C@@]21CC,active: 9.53 µM
22,COc1ccc(CC(NC(C)=O)C(=O)NC2CCN(c3c4c(nc5ncnn35)CCC4)CC2)cc1 (stereo not given),inactive
23,CSc1nc2ccccc2cc1/C=C(\C#N)c1cccc(Cl)c1,"inconclusive: 16.5 µM [inhibitor, single point]"
24,O=C(NCc1ccc(Cl)cc1)c1ccc(NC(=O)C2CCCO2)cc1 (stereo not given),"inconclusive: 10.4 µM [inhibitor, partial curve]"

row,Compound,Potency
1,CCN(CC(=O)Nc1cc(Cl)ccc1C)c1ncnc2sc(C)c(C)c12,"inconclusive: 18.5 µM [inhibitor, single point]"
2,CCOc1ccc(NC(=O)CN2CCN(CC(=O)Nc3cc(OC)cc(OC)c3)CC2)cc1,"inconclusive: 18.5 µM [inhibitor, single point]"
3,CNC(=O)CSc1nc2cccnc2n1C1CCCCC1,"inconclusive: 0.117 µM [inhibitor, full curve, poor fit]"
4,O=C(CC1CCCCC1)N1CCCC(c2nc(-c3ccc(S(=O)(=O)N4CCCC4)cc3)no2)C1 (stereo not given),"inconclusive: 3.7 µM [inhibitor, partial curve, poor fit]"
5,COC(=O)c1c(Cc2ccccc2Cl)c[nH]c1C,"inconclusive: 9.28 µM [inhibitor, partial curve]"
6,COc1cc(/C=C/c2[nH]c(=O)[nH]c(=O)c2[N+](=O)[O-])ccc1OCCC(C)C,inactive
7,CC(=O)NC(c1cc(Cl)c2cccnc2c1O)C1CC1 (stereo not given),active: 13.1 µM
8,C[C@@H](CSc1ccc(Br)cc1)CN1CC[C@H](C(C)(C)C)CCC1=O,"inconclusive: 10.4 µM [inhibitor, single point]"
9,CSc1ccc(-c2nc(O)c3cnccn23)cc1,inactive
10,C=C(C)CNC(=S)N/N=C/c1c(F)cccc1F,"inconclusive: 10.4 µM [inhibitor, single point]"
11,O=C(O)c1ccc(NS(=O)(=O)c2cccc(S(=O)(=O)c3ccc(Cl)c(Cl)c3)c2)cc1,inactive
12,Cc1ccc2nc(N3CC(C)OC(C)C3)nc(-c3ccccc3)c2c1 (stereo not given),"inconclusive: 4.15 µM [inhibitor, partial curve]"
13,COc1cc(/C=C/C(=O)c2c(O)n(CCc3ccccc3)c(=O)[nH]c2=O)ccc1O,"inconclusive: 11.7 µM [inhibitor, single point]"
14,O=C(C[n+]1cc(-c2ccc(Cl)cc2)n2c1CCC2)Nc1nc(-c2ccccc2)cs1,"inconclusive: 20.8 µM [inhibitor, partial curve, poor fit]"
15,COc1ccc2c(c1)c1nnc(SCC(=O)N3C(C)CCCC3C)nc1n2C (stereo not given),"inconclusive: 1.31 µM [inhibitor, partial curve, poor fit]"
16,CCOC(=O)c1c(CN2CCCCC2)n(C)c2cc(Br)c(O)c(CN(C)C)c12,active: 11.7 µM
17,COc1cccc(NC(=O)c2c(C)cc(C)cc2CC(C)(C)C(=O)O)c1,inactive
18,COc1ccc(Nc2ccc([N+](=O)[O-])cn2)cn1,inactive
19,Cc1ccc2nc(Nc3ccccc3)c(/C=N/O)c(=O)n2c1,"inconclusive: 0.0185 µM [inhibitor, full curve, poor fit]"
20,CC(=O)c1c(N2CCN(C)CC2)[nH]c(-c2ccccc2)nc1=S,inactive
21,CCNC(=O)CN(C1CCCCC1)S(=O)(=O)c1ccc(F)cc1,"inconclusive: 13.1 µM [inhibitor, partial curve]"
22,N#Cc1cc[n+](CC(=O)c2ccc(NC(=O)c3ccccc3)cc2)cc1,active: 3.29 µM
23,CSCCC(NC(=O)c1cccc(S(=O)(=O)N2CCOCC2)c1)C(=O)Nc1ccc(F)cc1 (stereo not given),"inconclusive: 4.15 µM [inhibitor, partial curve, poor fit]"
24,Cc1cccc(Nc2c([N+](=O)[O-])cc(C(=O)N3CC(=O)Nc4ccccc43)cc2[N+](=O)[O-])c1,"inconclusive: 18.5 µM [inhibitor, single point]"

row,Compound,Potency
1,Cn1c(=N)n(CC(=O)c2ccc(Cl)c(Cl)c2)c2ccccc21,"inconclusive: 18.5 µM [inhibitor, single point]"
2,COc1ccc2c(C)c(C(=O)NCC(C)O)oc2c1OC (stereo not given),inactive
3,COc1ccccc1OCCNC(=O)c1cc(F)c(F)cc1Cl,"inconclusive: 2.33 µM [inhibitor, partial curve, poor fit]"
4,COc1ccc(N2CCN(c3ncnc4scc(-c5ccc(C)cc5)c34)CC2)cc1,"inconclusive: 10.4 µM [inhibitor, single point]"
5,CCOc1ccc(C(=O)N2CCN(CC(=O)N3CCCC3)CC2)cc1OCC,inactive
6,O=C(NCCCN1CCOCC1)c1ccc(CS(=O)(=O)Cc2ccc(Cl)cc2)o1,"inconclusive: 2.08 µM [inhibitor, partial curve, poor fit]"
7,O=C(COC(=O)Cc1n[nH]c(=O)c2ccccc12)Nc1ccc(Cl)cc1F,inactive
8,CCCCCCCCCCOC(=O)Cn1c(COc2ccc(Cl)cc2)[n+](C)c2ccccc21,"inconclusive: 9.28 µM [inhibitor, partial curve]"
9,Cc1cccnc1NC(=S)Nc1ccc(Cl)c(Cl)c1,"inconclusive: 5.22 µM [inhibitor, partial curve, poor fit]"
10,COc1ccc2cc(S(=O)(=O)N3CCCCC3)ccc2c1S(=O)(=O)N1CCCCC1,"inconclusive: 6.57 µM [inhibitor, partial curve, poor fit]"
11,CCC(C)[C@H](NC(=O)[C@@H]1Cc2ccccc2CN1)C(=O)Nc1ccc2c(c1)OCO2 (stereo not given in full),"inconclusive: 11.7 µM [inhibitor, partial curve, poor fit]"
12,N#CCCn1cc(C(=O)N2CCCCC2)c(-c2ccc([N+](=O)[O-])cc2)n1,"inconclusive: 8.28 µM [inhibitor, partial curve, poor fit]"
13,CC(NC(=O)CCCCCNC(=O)N1CCn2c1nc1ccccc12)c1ccccc1 (stereo not given),"inconclusive: 7.38 µM [inhibitor, partial curve]"
14,COCCNS(=O)(=O)c1ccc2c(c1)oc(=O)c1cc(S(=O)(=O)NCCOC)ccc12,active: 1.85 µM
15,COC(=O)c1ccc(C(=O)OC)c(NC(=O)Oc2ccccc2)c1,"inconclusive: 13.1 µM [inhibitor, single point]"
16,CCc1ccccc1NC(=O)N[C@@H](C)C(=O)OC,inactive
17,CCCCN(CCCC)Cc1ccc(C(=O)NN)o1,"inconclusive: 1.31 µM [inhibitor, partial curve, poor fit]"
18,CCOC(=O)Cn1ncc2c3ccccc3n(CC(=O)OCC)c2c1=O,inactive
19,O=C1C(Br)=Cc2cccc3cccc1c23,"inconclusive: 18.5 µM [inhibitor, single point]"
20,COCCN(CC(=O)Nc1cccc(C)c1C)C(=O)Cc1sc(C)nc1-c1ccc(F)cc1,"inconclusive: 14.7 µM [inhibitor, single point]"
21,CCCOc1ccc(C2C3=C(Nc4nc(N)[nH]c(=O)c42)c2ccccc2C3=O)cc1 (stereo not given),"inconclusive: 10.4 µM [inhibitor, single point]"
22,COc1cccc(C(=O)Nc2ccc(NC(=O)C(C)(C)C)cn2)c1,"inconclusive: 2.62 µM [inhibitor, full curve, poor fit]"

# At a glance, 21 of the compounds above:
row,Compound,Potency
1,Cn1c(=N)n(CC(=O)c2ccc(Cl)c(Cl)c2)c2ccccc21,"inconclusive: 18.5 µM [inhibitor, single point]"
2,COc1ccc2c(C)c(C(=O)NCC(C)O)oc2c1OC (stereo not given),inactive
3,COc1ccccc1OCCNC(=O)c1cc(F)c(F)cc1Cl,"inconclusive: 2.33 µM [inhibitor, partial curve, poor fit]"
4,COc1ccc(N2CCN(c3ncnc4scc(-c5ccc(C)cc5)c34)CC2)cc1,"inconclusive: 10.4 µM [inhibitor, single point]"
5,CCOc1ccc(C(=O)N2CCN(CC(=O)N3CCCC3)CC2)cc1OCC,inactive
6,O=C(NCCCN1CCOCC1)c1ccc(CS(=O)(=O)Cc2ccc(Cl)cc2)o1,"inconclusive: 2.08 µM [inhibitor, partial curve, poor fit]"
7,O=C(COC(=O)Cc1n[nH]c(=O)c2ccccc12)Nc1ccc(Cl)cc1F,inactive
8,CCCCCCCCCCOC(=O)Cn1c(COc2ccc(Cl)cc2)[n+](C)c2ccccc21,"inconclusive: 9.28 µM [inhibitor, partial curve]"
9,Cc1cccnc1NC(=S)Nc1ccc(Cl)c(Cl)c1,"inconclusive: 5.22 µM [inhibitor, partial curve, poor fit]"
10,COc1ccc2cc(S(=O)(=O)N3CCCCC3)ccc2c1S(=O)(=O)N1CCCCC1,"inconclusive: 6.57 µM [inhibitor, partial curve, poor fit]"
11,CCC(C)[C@H](NC(=O)[C@@H]1Cc2ccccc2CN1)C(=O)Nc1ccc2c(c1)OCO2 (stereo not given in full),"inconclusive: 11.7 µM [inhibitor, partial curve, poor fit]"
12,N#CCCn1cc(C(=O)N2CCCCC2)c(-c2ccc([N+](=O)[O-])cc2)n1,"inconclusive: 8.28 µM [inhibitor, partial curve, poor fit]"
13,CC(NC(=O)CCCCCNC(=O)N1CCn2c1nc1ccccc12)c1ccccc1 (stereo not given),"inconclusive: 7.38 µM [inhibitor, partial curve]"
14,COCCNS(=O)(=O)c1ccc2c(c1)oc(=O)c1cc(S(=O)(=O)NCCOC)ccc12,active: 1.85 µM
15,COC(=O)c1ccc(C(=O)OC)c(NC(=O)Oc2ccccc2)c1,"inconclusive: 13.1 µM [inhibitor, single point]"
16,CCc1ccccc1NC(=O)N[C@@H](C)C(=O)OC,inactive
17,CCCCN(CCCC)Cc1ccc(C(=O)NN)o1,"inconclusive: 1.31 µM [inhibitor, partial curve, poor fit]"
18,CCOC(=O)Cn1ncc2c3ccccc3n(CC(=O)OCC)c2c1=O,inactive
19,O=C1C(Br)=Cc2cccc3cccc1c23,"inconclusive: 18.5 µM [inhibitor, single point]"
20,COCCN(CC(=O)Nc1cccc(C)c1C)C(=O)Cc1sc(C)nc1-c1ccc(F)cc1,"inconclusive: 14.7 µM [inhibitor, single point]"
21,CCCOc1ccc(C2C3=C(Nc4nc(N)[nH]c(=O)c42)c2ccccc2C3=O)cc1 (stereo not given),"inconclusive: 10.4 µM [inhibitor, single point]"
